Where “and” joins values, the source holds several entries; their conditions need not be identical. Equal values may be shown once. Hit rate of the full screen: of about 230,000 compounds, about 310 (0.13%) were called active. Inconclusive means that the source gave no clear call. Such entries were picked first, then a sample of the others. Calls follow the shape of the dose curve; as a rule, active = well fitted activation curve with a large enough effect; inconclusive = small, poorly fitted or top-dose-only effect; inactive = no such curve, though single readings can be large or run the other way. A potency beside an inconclusive call is a rough fit, not a confirmed value.
Test: qHTS Multiplex Assay to Identify Dual Action Probes in a Cell Model of Huntington: Cytoprotection (ATP); also: nearly all actives have a fitted effect of over 45% in size;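 as to cytoprotection (ATP increase): toxic huntingtin expression switched on by the ecdysone agonist tebufenozide; % of control where 0% means no effect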
Conditions: PC12 HTT-Q103 induced, ATP luminescence, 40 h; cytoprotection (ATP increase): at 56.4 µM (top of the series) unless noted
In short: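 Rat PC12, Q103 Htt exon1-GFP fusion, ecdysone promoter; tebufenozide inducer 100 nM final; compound titration; qHTS, 1500 cells/well; ATPlite luminescent read.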
Potency is read from the fitted curve at half-maximal effect.

Structure (SMILES) | cytoprotection (ATP increase) | Potency
CCCCNC(=O)N(O)C1N(/N=C/c2cccs2)C(=S)SC1(C)C (stereo not given) | inactive: 15.1% [at 10 µM] | 
CC(C)Cn1ccc(=O)n(CC(C)C)c1=O |  | inconclusive: 1 µM [activator, single point]
Nc1cccc2nsnc12 | inactive: -7.09% [at 10 µM] and inactive: 15.6% [at 10 µM] | 
FC(F)(F)c1cccc(N2CCN(CC3CC=CCC3)CC2)c1 (stereo not given) |  | inconclusive: 3.16 µM [activator, single point]
O=C(O)C1CCCCC1C(=O)Nc1cc(Cl)ccc1Cl (stereo not given) | inactive: 6% | 
Cc1cc2c(N3CCCCC3C)ncnc2s1 (stereo not given) | inactive: 2.94% [at 10 µM] | 
COCCCn1cnnc1SCc1nc2sc(C(C)=O)c(C)c2c(=O)[nH]1 | inactive: -9.91% [at 10 µM] | 
COCCNC(=O)/C(C#N)=C1\N=C(N)c2ccccc21 | inactive: 10.3% [at 10 µM] | 
CC(C)COc1ccc(Cc2cnc(N)nc2N)cc1 |  | inconclusive: 1.26 µM [activator, single point]
Cc1ccc(-n2nnnc2-c2cnn(-c3ccc(F)cc3)c2C(F)(F)F)cc1 |  | inconclusive: 3.16 µM [activator, partial curve]
CC(=O)N1CCN(Cc2nc(-c3cccc(Cl)c3)no2)CC1 |  | inconclusive: 2 µM [activator, single point]
COc1ccc(C(NC(=O)c2cccc(F)c2)c2ccccc2)cc1 (stereo not given) | inactive: 1.4% [at 10 µM] | 
Cn1cccc1C(=O)N1CCC[C@@]2(CCN(c3ccccc3)C2)C1 |  | inconclusive: 39.8 µM [activator, single point]
CC1Cc2ccccc2N1C(=O)COC(=O)c1ccc(Br)o1 (stereo not given) | inactive: 8.56% [at 10 µM] | 
C=CCN1CCCC1CNC(=O)c1cc(S(N)(=O)=O)cc(OC)c1OC (stereo not given) |  | inconclusive: 22.4 µM [activator, partial curve, poor fit]
O=C(NCc1cn2ccccc2n1)c1ccc2c(c1)OCO2 |  | inconclusive: 0.708 µM [activator, single point]
CC(CCc1ccc(O)cc1)NCC(O)c1ccc(O)cc1 (stereo not given) |  | inconclusive: 2.51 µM [activator, full curve]
CC(C)(C)C(=O)/C(=C/c1ccncc1)n1cncn1 |  | inconclusive: 4.47 µM [activator, single point]
Cc1c(C)c2c(c(C)c1O)CC[C@@](C)(CCC[C@H](C)CCC[C@H](C)CCCC(C)C)O2 |  | inconclusive: 5.62 µM [activator, partial curve]
COc1ccccc1-c1cnnc(N/N=C/c2ccc(-c3cccc(Br)c3)o2)n1 |  | inconclusive: 4.47 µM [activator, single point]

Sorted by heavy-atom count (rising): part of the list above
Structure (SMILES) | cytoprotection (ATP increase) | Potency
FC(F)(F)c1cccc(N2CCN(CC3CC=CCC3)CC2)c1 (stereo not given) |  | inconclusive: 3.16 µM [activator, single point]
COCCCn1cnnc1SCc1nc2sc(C(C)=O)c(C)c2c(=O)[nH]1 | inactive: -9.91% [at 10 µM] | 
Cc1ccc(-n2nnnc2-c2cnn(-c3ccc(F)cc3)c2C(F)(F)F)cc1 |  | inconclusive: 3.16 µM [activator, partial curve]

Reference: PubChem BioAssay AID1471 (National Center for Advancing Translational Sciences (NCATS), 2008)
